# Experimental data as given in PubChem BioAssay AID588590 (National Center for Advancing Translational Sciences (NCATS), 2011).
# Protein sequences, listed by entry. Tags and fused reporters are not part of them. Lines headed by an entry give the natural chain unless they say otherwise; changes in a name come on top.
# UniProt Q9UNA4: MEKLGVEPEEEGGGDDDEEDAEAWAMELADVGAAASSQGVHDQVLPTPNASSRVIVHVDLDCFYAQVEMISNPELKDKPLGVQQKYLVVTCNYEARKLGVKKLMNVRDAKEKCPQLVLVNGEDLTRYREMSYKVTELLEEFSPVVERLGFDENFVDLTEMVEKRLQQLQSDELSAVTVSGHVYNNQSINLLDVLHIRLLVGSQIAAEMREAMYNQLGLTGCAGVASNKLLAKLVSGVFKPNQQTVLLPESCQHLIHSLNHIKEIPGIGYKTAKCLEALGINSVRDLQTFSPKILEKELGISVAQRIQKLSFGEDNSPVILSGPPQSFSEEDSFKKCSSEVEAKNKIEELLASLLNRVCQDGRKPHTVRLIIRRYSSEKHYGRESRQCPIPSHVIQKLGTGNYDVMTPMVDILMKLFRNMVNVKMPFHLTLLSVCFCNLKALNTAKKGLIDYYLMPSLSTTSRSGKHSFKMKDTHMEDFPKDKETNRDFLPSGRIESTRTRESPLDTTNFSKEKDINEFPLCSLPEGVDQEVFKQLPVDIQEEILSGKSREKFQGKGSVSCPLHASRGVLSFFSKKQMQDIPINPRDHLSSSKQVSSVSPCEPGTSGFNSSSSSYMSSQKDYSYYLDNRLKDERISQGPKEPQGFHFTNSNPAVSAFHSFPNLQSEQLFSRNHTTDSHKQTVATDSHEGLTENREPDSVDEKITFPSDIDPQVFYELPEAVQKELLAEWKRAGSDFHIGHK
# The whole screen tested about 390,000 compounds, of which about 4,000 (1%) were called active. This list was built around the results that the source calls inconclusive (neither active nor inactive); the mix of calls is not that of the screen. The call rests on the fitted dose curve; in most records, active means well fitted inhibition curve with a large enough effect; inconclusive means small, poorly fitted or top-dose-only effect, or another doubt; inactive means no such curve, though single readings can be large or run the other way. Potencies beside an inconclusive call are fits to weak or partial responses and may not hold up.
# Target: DNA polymerase iota (Homo sapiens) (UniProt Q9UNA4)
# Experiment: qHTS for Inhibitors of Polymerase Iota
# Conditions: Pol iota fluorescent replication assay, 10 min; series mostly up to 115 µM
# Source text: DNA polymerases, such as Pol iota, are specifically involved in DNA repair. Pol iota specifically plays an important role in translesion synthesis, where the normal high-fidelity DNA polymerases cannot proceed and DNA synthesis stalls. […] Thus, while pol eta's (and most likely iota's) normal function is to protect humans against the deleterious consequences of DNA damage, under certain conditions they can have deleterious effects on human health. As a consequence, we propose to utilize a high throughput replication assay to identify small molecule inhibitors of pol iota.
# In a collaboration between the National Institute of Child Health & Human Development (NICHD) and NIH Chemical Genomics Center, a high-throughput, fluorescent screen was developed to screen the NIH Molecular Libraries Small Molecule Repository (MLSMR). This screen is used to identify inhibitors of pol iota.
# NIH Chemical Genomics Center [NCGC]
# NIH Molecular Libraries Probe Centers Network [MLPCN]
# Assay Submitter (PI): Roger Woodgate, NICHD)
# Three microliters of reagents (buffer in column 3 and 4 as negative control and 10 nM Pol iota in columns 1, 2, and 5-48) will be dispensed into 1,536-well black solid-bottomed plate. Compounds (23 nL) will be transferred via Kalypsys pin tool equipped with 1536-pin array. The plates will then be incubated for 15 min at room temperature, and 1 µL substrate (50 nM final concentration) will be added to start the reaction and kinetically read twice at 0 min and 10 min on the Viewlux reader.
# Potency means the concentration at half of the fitted maximal effect.
row,Structure (SMILES),Potency
1,COc1ccc(CCNC(=O)c2cc3c(=O)n4cccc(C)c4nc3n(Cc3ccco3)c2=N)cc1OC,"inconclusive: 31.6 µM [inhibitor, partial curve]"
2,Cc1cc(NC(=O)c2cc(C(C)C)on2)no1,"inconclusive: 79.4 µM [inhibitor, partial curve, poor fit]"
3,O=C(CSc1nc2ccccc2[nH]1)NC1CCCC1,"inconclusive: 12.6 µM [inhibitor, full curve]"
4,N/C(=N/OC(=O)c1ccccc1Cl)c1ncc([N+](=O)[O-])s1,"inconclusive: 14.1 µM [inhibitor, partial curve]"
5,O=C(N/N=C/c1ccc2nccnc2c1)c1ccc(Br)cc1,inactive
6,O=C(COc1cc(F)ccc1[N+](=O)[O-])N1N=C(c2cccs2)CC1c1ccco1 (stereo not drawn),"inconclusive: 17.8 µM [inhibitor, partial curve]"
7,Cn1c(=O)c2c(nc(N3CCN(c4ccccn4)CC3)n2Cc2ccccc2Cl)n(C)c1=O,"inconclusive: 89.1 µM [inhibitor, single point]"
8,CC1(C)CC(=O)C(C(C2=C(O)CC(C)(C)CC2=O)c2cccs2)C(=O)C1 (stereo not drawn),"inconclusive: 39.8 µM [inhibitor, single point]"
9,CCC(=O)Nc1nc(C)c(-c2csc(Nc3ccccn3)n2)s1,"inconclusive: 79.4 µM [inhibitor, partial curve, poor fit]"
10,Cc1nnc(-c2cccc(Br)c2)c2cn(-c3ccc(Br)cc3)nc12,inactive
11,Cc1oc(-c2ccc(Cl)cc2)cc1-c1nn2c(-c3ccoc3C)nnc2s1,"inconclusive: 22.4 µM [inhibitor, full curve, poor fit]"
12,CCOc1ccccc1N=Cc1c(O)c2ccccc2oc1=O,"inconclusive: 0.708 µM [inhibitor, full curve, poor fit]"
13,Cc1cc(C(=O)CSc2nn(-c3ccccc3)c(=S)s2)c(C)n1Cc1ccco1,"inconclusive: 15.8 µM [inhibitor, partial curve, poor fit]"
14,C/C=C/COc1nc2c(c(=O)n(C)c(=O)n2C)n1C,"inconclusive: 31.6 µM [inhibitor, single point]"
15,CCOC(=O)c1cc(C#N)c(SC(C(=O)N2CCCCC2)c2ccccc2)nc1C (stereo not drawn),"inconclusive: 100 µM [inhibitor, partial curve, poor fit]"
16,COc1ccc2nc(C)cc(SCC(=O)NNC(=O)COc3cccc4ccccc34)c2c1,"inconclusive: 112 µM [inhibitor, single point]"
17,O=C(O)CSc1nnc(COc2cccc3cccnc23)n1-c1cccc(C(F)(F)F)c1,inactive
18,O=C(O)CN1c2cccc3cccc(c23)S1(=O)=O,"inconclusive: 31.6 µM [inhibitor, partial curve, poor fit]"
19,COc1ccc(CCn2c(=N)c(C(=O)NCc3ccco3)cc3c(=O)n4cccc(C)c4nc32)cc1,"inconclusive: 11.2 µM [inhibitor, partial curve]"
20,Cc1cccc(-n2c(-c3ccco3)nc3c(cnn3-c3ccc(F)cc3)c2=O)c1,"inconclusive: 28.2 µM [inhibitor, single point]"
21,Cc1ccc(CN(C)C(=O)c2ccc3c(c2)NC(=O)CS3)o1,"inconclusive: 22.4 µM [inhibitor, full curve, poor fit]"

# Taken from the results shown (2 entries):
row,Structure (SMILES),Potency
18,O=C(O)CN1c2cccc3cccc(c23)S1(=O)=O,"inconclusive: 31.6 µM [inhibitor, partial curve, poor fit]"
19,COc1ccc(CCn2c(=N)c(C(=O)NCc3ccco3)cc3c(=O)n4cccc(C)c4nc32)cc1,"inconclusive: 11.2 µM [inhibitor, partial curve]"

# (next part)

row,Structure (SMILES),Potency
1,COc1ccc(N(CC(=O)NCCSCc2ccco2)S(=O)(=O)c2ccccc2)cc1Cl,"inconclusive: 50.1 µM [inhibitor, partial curve, poor fit]"
2,Cc1ccc2c(CC(=O)OCC(=O)N(CC(C)C)c3c(N)n(Cc4ccccc4)c(=O)[nH]c3=O)coc2c1,active: 25.1 µM
3,CNC(=O)C1CC(=O)N(c2ccc(OCC(=O)Nc3ccc(F)cc3)cc2)C1 (stereo not drawn),"inconclusive: 35.5 µM [inhibitor, single point]"
4,O=C(Nc1ccc(Cl)c([N+](=O)[O-])c1)c1cnccn1,"inconclusive: 14.1 µM [inhibitor, full curve, poor fit]"
5,O=C(O)c1cccc2c1Cc1cc([N+](=O)[O-])ccc1-2,"inconclusive: 44.7 µM [inhibitor, partial curve]"
6,O=S(=O)(O)c1cc2onnc2c2ccccc12,"inconclusive: 28.2 µM [inhibitor, partial curve, poor fit]"
7,CCOc1ccc(S(=O)(=O)N2CCN(c3ccccc3OC)CC2)c2cccnc12,"inconclusive: 35.5 µM [inhibitor, single point]"
8,CCOC(=O)NCc1ccccc1,"inconclusive: 79.4 µM [inhibitor, single point]"
9,COc1cc(/C=N/NC(=O)c2ccc3nc[nH]c3c2)cc(OC)c1OC,active: 15.8 µM
10,CCOC(=O)CSc1ccc2nnc(-c3cccnc3)n2n1,inactive
11,O=[N+]([O-])c1ccc(NC(=S)NCc2ccc(F)cc2)cc1,"inconclusive: 89.1 µM [inhibitor, single point]"
12,CCN(CC)C(=O)c1[nH]cnc1C(=O)N[C@@H](CC(C)C)C(=O)OCc1ccccc1,"inconclusive: 79.4 µM [inhibitor, partial curve, poor fit]"
13,COc1cccc(NC(=O)c2cccc(S(=O)(=O)N3CCN(Cc4ccccc4)CC3)c2)c1,"inconclusive: 89.1 µM [inhibitor, partial curve, poor fit]"
14,COc1cc(NC(=O)CSc2ncnc3sc4c(c23)CCCC4)c(C(=O)O)cc1OC,"inconclusive: 31.6 µM [inhibitor, single point]"
15,CCCOc1ccccc1-c1nc2n[nH]nc2c(=O)[nH]1,inactive
16,O=C(O)COc1cccc(/C=C2/SC(=S)N(Cc3ccccc3)C2=O)c1,"inconclusive: 25.1 µM [inhibitor, partial curve, poor fit]"
17,O=C(OCc1ccc([N+](=O)[O-])cc1)C1CC(=O)N(c2ccccc2)C1 (stereo not drawn),"inconclusive: 89.1 µM [inhibitor, single point]"
18,CCn1cc(/C=N/NC(=O)COc2cccc3cccnc23)c2ccccc21,"inconclusive: 50.1 µM [inhibitor, partial curve, poor fit]"
19,COc1ccccc1NC(=O)c1ccc(NC(=O)CSc2nnnn2C)cc1,"inconclusive: 25.1 µM [inhibitor, single point]"
20,CS(=O)(=O)c1ccc(C(=O)OCc2nnc(-c3ccccc3)o2)cc1[N+](=O)[O-],"inconclusive: 20 µM [inhibitor, partial curve]"
21,CN(C)c1ccc(CNC(=O)c2ccc3c(c2)N(C)C(=O)C2CCCCN32)cc1 (stereo not drawn),inactive

row,Structure (SMILES),Potency
1,COc1ccccc1CNc1ccc(-c2nc(-c3cccc(C)c3)no2)cc1[N+](=O)[O-],inactive
2,COc1ccc(Cc2nnc(NC(=O)Cc3cccs3)s2)cc1OC,"inconclusive: 4.47 µM [inhibitor, full curve, poor fit]"
3,O=Cc1cc2ccccc2cc1O,inactive
4,CCNc1ccccc(C(=O)/C=C/c2ccc3c(c2)OCO3)c1=O,"inconclusive: 12.6 µM [inhibitor, full curve, poor fit]"
5,O=S1OC(c2ccccc2)c2cc(Cl)ccc21 (stereo not drawn),"inconclusive: 25.1 µM [inhibitor, single point]"
6,CC(=O)Nc1cccc(OCC(=O)NS(=O)(=O)c2ccc(Cl)cc2)c1,"inconclusive: 10 µM [inhibitor, partial curve, poor fit]"
7,O=C1c2cccc3c([N+](=O)[O-])ccc(c23)C(=O)N1c1nccs1,"inconclusive: 11.2 µM [inhibitor, partial curve]"
8,COc1cccc(CC(=O)Nc2ccc3c(c2)OC2(CCCC2)O3)c1,"inconclusive: 3.98 µM [inhibitor, full curve, poor fit]"
9,CCn1nc(C)c(CCC(=O)O)c1C,inactive
10,CC(=O)Nc1cccc(C(=O)OCC(=O)c2ccccc2Cl)c1,"inconclusive: 100 µM [inhibitor, single point]"
11,Cc1cc2c(cc1C)N[C@]1(C[C@H]3CCCC(=O)N4CC[C@@H](C1)[C@@H]34)C(=NC1CCCCC1)N2,inactive
12,CC(=O)Nc1ccc(SCc2csc(C)n2)cc1,"inconclusive: 31.6 µM [inhibitor, partial curve, poor fit]"
13,CCCN1C(=O)/C(=c2\sc3nc(=O)c(Cc4ccc(C)cc4)nn3c2=O)c2ccccc21,"inconclusive: 31.6 µM [inhibitor, partial curve, poor fit]"
14,CNS(=O)(=O)c1cn(CC(=O)N2CCN(c3cccc(Cl)c3)CC2)cc1S(=O)(=O)NC,inactive
15,Cc1cccc(NC(=O)c2sc(NC(=O)c3ccco3)c(C#N)c2C)c1C,"inconclusive: 100 µM [inhibitor, single point]"
16,Clc1ccccc1C1Nc2cccc3cccc(c23)N1,"inconclusive: 7.08 µM [inhibitor, full curve, poor fit]"
17,Cc1ccc(/C=C2\C(=O)ON=C2c2ccccc2)o1,inactive
18,CC(=O)OCC1=C(C(=O)O)N2C(=O)C(NC(=O)CC(C)c3ccccc3)C2SC1 (stereo not drawn),"inconclusive: 39.8 µM [inhibitor, partial curve, poor fit]"
19,O=C(OCN1C(=O)c2ccccc2C1=O)/C(=C\c1ccco1)NC(=O)c1ccccc1,inactive
20,C/C(=N\NC(=O)c1c(Cl)cnn1C)c1cccc(NC(=O)C(C)C)c1,"inconclusive: 79.4 µM [inhibitor, partial curve, poor fit]"
21,COC(=O)C(C)n1cnc2c(nnn2-c2cccc(OC)c2)c1=O (stereo not drawn),"inconclusive: 63.1 µM [inhibitor, partial curve, poor fit]"

# Two compounds picked at random from those above, as already listed:
row,Structure (SMILES),Potency
3,O=C(CSc1nc2ccccc2[nH]1)NC1CCCC1,"inconclusive: 12.6 µM [inhibitor, full curve]"
3,O=Cc1cc2ccccc2cc1O,inactive
